Data on 42 sequences can be found in PMC7819943, “Rice protein-binding microarrays: a tool to detect cis-acting elements near promoter regions in rice”.

Amino acid sequences for entries named in this document (tags omitted).
UniProt Q0JBA9, entry or part of it: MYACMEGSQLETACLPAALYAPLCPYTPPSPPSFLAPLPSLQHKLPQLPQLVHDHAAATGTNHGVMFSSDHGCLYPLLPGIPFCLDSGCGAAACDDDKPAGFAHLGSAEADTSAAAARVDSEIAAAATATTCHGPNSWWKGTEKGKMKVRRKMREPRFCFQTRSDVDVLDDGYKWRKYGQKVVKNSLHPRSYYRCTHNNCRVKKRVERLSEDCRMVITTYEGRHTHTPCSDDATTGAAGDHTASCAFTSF

This is one part of the list.

The target of the test is OsWRKY34 (Oryza sativa, UniProt Q0JBA9 1-250). Put plainly: protein-binding microarray (RPBM); PBS, 2% BSA, 51.3 ng/ul salmon testes DNA, 50 uM zinc acetate, 200 nM TF, 25 C, 1 h; high values mean tight binding. The conditions noted are these: protein: recombinant; tags: N-terminal polyhistidine and DsRed monomer fusion (pET32a); label: CyDye5-dUTP incorporated in the synthesized complementary strand; 3' TTTTT single-stranded linker to array surface; dsDNA, one strand shown. The procedure, abridged: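 Per-feature fluorescence intensity (arbitrary units), read on an Axon 4000B scanner, is the binding signal. Transcription factors carrying an N-terminal polyhistidine tag and DsRed fusion were expressed in E. coli BL21-CodonPlus and purified on Ni–NTA. A custom Agilent array, made double-stranded by primer extension with Cy5-dUTP and blocked with 2% BSA, was incubated with 200 nM protein in PBS, 2% BSA, salmon testes DNA and 50 µM zinc acetate at 25 °C for 1 h and then washed.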
Consider “ACGCATTCATGACACGTACCTGCACTAGAATTCCCCTTCCCGGAGTCACCTAGTGCAG”, for which the binding signal is 8170 fluorescence intensity (a.u.).
On to “ACTATCTTAGCCATTCCAACGCCGTCTTTCCTCGGTCCTCCGGAGTCACCTAGTGCAG”, for which the binding signal was 12500 fluorescence intensity (a.u.).
Consider “TAGTTTGTTTCATTTTTCGCACGCACGCTTCTCGAACTACCGGAGTCACCTAGTGCAG”, for which the binding signal is 8220 fluorescence intensity (a.u.).
Take “TTTTGTTTCTTTTCTTACCCTAATCTCTCTCACTGGCTCGCGGAGTCACCTAGTGCAG”: the binding signal is 8460 fluorescence intensity (a.u.).
For the sequence “ATACCTATCGATTCCGTATTCTCCTCTGTTCCGCTCTCTCCGGAGTCACCTAGTGCAG”, the binding signal was 10200 fluorescence intensity (a.u.).
Turning to “TATCATACTGTTTCTTTTCTATGGATAGAACATTTTATTCCGGAGTCACCTAGTGCAG”, the binding signal is 8470 fluorescence intensity (a.u.).
Turning to “TTTACGCTGTCTCTCTTCTCGTTAACCTGCTCTACCAATCCGGAGTCACCTAGTGCAG”, the binding signal is 8310 fluorescence intensity (a.u.).
Regarding “ACTCCACATGTATCAGTTATAGCTCTGTACTTTAGAAAGACGGAGTCACCTAGTGCAG”, the binding signal is 9100 fluorescence intensity (a.u.).
For “CATCTCAACCAATTACAACCATCCCATTTAATTCCATCCTCGGAGTCACCTAGTGCAG”, the binding signal was 8650 fluorescence intensity (a.u.).
For “TCTTCTCCACTTACTTGTCCATCTTCTTCTCCTCCTCCTACGGAGTCACCTAGTGCAG”, the binding signal is 8780 fluorescence intensity (a.u.).
The result for “TAAGTATGCACGGTCACAGCTGTTGTTTGTCGAGCCAGCACGGAGTCACCTAGTGCAG” reads 9520 fluorescence intensity (a.u.); that for “ATCTCGTTATGGGTTATGGGCGTTATGGTATGATTAATTACGGAGTCACCTAGTGCAG”, 12400 fluorescence intensity (a.u.).
The result for “GTTAGTTGTCACTGAACCCTACATTGTCATTTTCTTTTCACGGAGTCACCTAGTGCAG” reads 8870 fluorescence intensity (a.u.); that for “GAGTTTGTTCTGTTTTCGCCGGTAGATCTCCACGTTCCTTCGGAGTCACCTAGTGCAG”, 8890 fluorescence intensity (a.u.); that for “ACTACTACTACTAGTATTTTCTTTGACTTTTCCTGCACCCCGGAGTCACCTAGTGCAG”, 10500 fluorescence intensity (a.u.).
Take “CGACTGGTGCTTTTATCTTCACAACTGCGCGTCTTCACTACGGAGTCACCTAGTGCAG”: the binding signal was 13100 fluorescence intensity (a.u.).
“ATCTGCATGTTCGCCCTTCTTCATACAATGTCTTGCTTGTCGGAGTCACCTAGTGCAG”: the binding signal is 8060 fluorescence intensity (a.u.).
The value for “GCCCTACTCTACCCCTAGCCCTCCGCGCGGCTGCCGTCGACGGAGTCACCTAGTGCAG” was 8970 fluorescence intensity (a.u.); that for “CACAGCGACCCACCACCCTTCTTTCTGCCATGCCTTACATCGGAGTCACCTAGTGCAG” was 10100 fluorescence intensity (a.u.).
In the case of “ACTTCTTTTCTCATGCACAGAGGCAGAACAGCCATGGCTGCGGAGTCACCTAGTGCAG”, the binding signal is 8310 fluorescence intensity (a.u.).
Turning to “ATGCTTCACCTCGTCGCCCTAAATTTATCACCCAGAGGCGCGGAGTCACCTAGTGCAG”, the binding signal was 8100 fluorescence intensity (a.u.).
As for “GTATGCATGCGGCTATAAACGTTATGTTTATGTTGTGTTTCGGAGTCACCTAGTGCAG”, the binding signal was 9020 fluorescence intensity (a.u.).
Consider “TTCCTAGTGCCATCCATACCTTCTCTAAATTAATCCGATTCGGAGTCACCTAGTGCAG”, for which the binding signal is 8480 fluorescence intensity (a.u.).
For “ACTCCGTATCCTGAACTTACTAGTATTAGTTTCCAGTTTTCGGAGTCACCTAGTGCAG”, the binding signal is 8060 fluorescence intensity (a.u.).
For “ACAACGGTTTGTTATTGTCTTGTCGGCTTCTACAACACAACGGAGTCACCTAGTGCAG”, the binding signal is 8600 fluorescence intensity (a.u.).
As to “ATCCTACCTTACCTCTCTCTGGCAACCGGGTCCCACCTAACGGAGTCACCTAGTGCAG”, the binding signal is 12100 fluorescence intensity (a.u.).
In the case of “GTCTCGCGATTTCCATACAAACTGTGCAATTAGTTTTTTTCGGAGTCACCTAGTGCAG”, the binding signal was 11200 fluorescence intensity (a.u.).
Take “TGTTCCCCTTCTGCTATCTCAACCGTGTCTGTCTTATCATCGGAGTCACCTAGTGCAG”: the binding signal was 9570 fluorescence intensity (a.u.).
Regarding “ACATCAAAGCTTTCCTACACACACAACCTTCCAATGTTTCCGGAGTCACCTAGTGCAG”, the binding signal is 9160 fluorescence intensity (a.u.).
In the case of “GATGTTGTTTCCTTTCTTTGGTGGTTTGGTTTGGTTGGGTCGGAGTCACCTAGTGCAG”, the binding signal was 29300 fluorescence intensity (a.u.).
Regarding “ACCCACCTACCAAATTTATTTACTGTAGACGCAATTGACTCGGAGTCACCTAGTGCAG”, the binding signal was 8770 fluorescence intensity (a.u.).
“TTGATGTAGTATTCTTTTAAGGTTGGATGGTTGGATTTGACGGAGTCACCTAGTGCAG”: the binding signal is 10000 fluorescence intensity (a.u.).
The result for “ATATTGTTTTGATATCATAAGTAGTTTTGACTTTTTTTTACGGAGTCACCTAGTGCAG” reads 11000 fluorescence intensity (a.u.); that for “GATGATGGGACGTGGGGTGGGATCGGAAGTAGGAAAGTTGCGGAGTCACCTAGTGCAG”, 13400 fluorescence intensity (a.u.); that for “CACCGAGTTCCCCGCCCCAAACTCCGCCCCGCTCTCTCCGCGGAGTCACCTAGTGCAG”, 8640 fluorescence intensity (a.u.).
With “CCCACCCGCCACCACCGCGCGCCGTCGACACTCGGCGACCCGGAGTCACCTAGTGCAG”, the binding signal is 8910 fluorescence intensity (a.u.).
As to “TGCCATCTCCTTCGCCATTGGAGCTCACCACACACTCGCTCGGAGTCACCTAGTGCAG”, the binding signal is 9660 fluorescence intensity (a.u.).
Take “TTCTGATTTCTGCCATTGATTATGATTTCAGCATGTTTTCCGGAGTCACCTAGTGCAG”: the binding signal was 10200 fluorescence intensity (a.u.).
On to “GAGTTCCGACGGAAACTGCCCTTATCATTTCCGATTCCGTCGGAGTCACCTAGTGCAG”, for which the binding signal was 9820 fluorescence intensity (a.u.).
Regarding “TGGTATATGTCATATCTGGTTTTAGATTTATTTTTTGTGACGGAGTCACCTAGTGCAG”, the binding signal was 8890 fluorescence intensity (a.u.).
As for “AAACTGGGCCATATCGGTTGGTTTTTGCTCTCTACGTCTCCGGAGTCACCTAGTGCAG”, the binding signal was 9280 fluorescence intensity (a.u.).
For the sequence “TACGATCTCATCATGCCCCATCTGCAATAAGTCAATTCCGCGGAGTCACCTAGTGCAG”, the binding signal was 8090 fluorescence intensity (a.u.).
